{"source": "PubChem BioAssay AID1259425 (University of Nebraska Medical Center, 2018)", "screen": "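Compare each knockdown with KSR1 silencing using changes in marker transcripts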 (primary screen)", "cell system": "HCT116 human colon cancer cells", "reagent": "siRNA pool against human genes, 50 nM siRNA", "measured": "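After 50 nM siRNA pool, branched-DNA assay measures six marker transcripts per well, minus blank, normalised to the geometric mean of two housekeeping transcripts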", "reading the numbers": "BNIP3L mRNA: higher = more BNIP3L transcript after knockdown", "note": "This is one part, drawn at random, of about 14,000 reagents tested. Further read-outs or replicates are left out here. Not stated in the record: the time to read-out."}
{"target": "FLI1", "BNIP3L mRNA, set 1": 0.16}
{"target": "BCAS1", "BNIP3L mRNA, set 1": 0.146}
{"target": "DLG4", "BNIP3L mRNA, set 1": 0.0402}
{"target": "ABCA11P", "BNIP3L mRNA, set 1": 0.108}
{"target": "DGCR6", "BNIP3L mRNA, set 1": 0.146}
{"target": "COG6", "BNIP3L mRNA, set 1": 0.131}
{"target": "OR1A1", "BNIP3L mRNA, set 1": 0.265}
{"target": "METTL1", "BNIP3L mRNA, set 1": 0.18}
{"target": "CA4", "BNIP3L mRNA, set 1": 0.0574}
{"target": "SOCS1", "BNIP3L mRNA, set 1": 0.169}
{"target": "POLE4", "BNIP3L mRNA, set 1": 0.0821}
{"target": "CEBPB", "BNIP3L mRNA, set 1": 0.0795}
{"target": "ARPC5", "BNIP3L mRNA, set 1": 0.272}
{"target": "TSPAN32", "BNIP3L mRNA, set 1": 0.095}
{"target": "SNX16", "BNIP3L mRNA, set 1": 0.123}
{"target": "IL17C", "BNIP3L mRNA, set 1": 0.12}
{"target": "FBL", "BNIP3L mRNA, set 1": 0.156}
{"target": "PASK", "BNIP3L mRNA, set 1": 0.0732}
{"target": "KIF21A", "BNIP3L mRNA, set 1": 0.209}

A portion of the results above, as a working copy:
{"target": "CA4", "BNIP3L mRNA, set 1": 0.0574}
{"target": "SOCS1", "BNIP3L mRNA, set 1": 0.169}
